Results are given in words; binding and its absence hold for the method and conditions named. For some of these results: Binding seen in cells or lysates may run through a third protein. Some results given as binding are weak or reduced against the parent protein; the word gives no strength.

By UniProt entry, the sequences of proteins in these tests, tags left out. Where a name states a change or a piece, a line headed by the entry shows the natural chain unless it says otherwise. Residues count along the entry.
UniProt Q9NPG3: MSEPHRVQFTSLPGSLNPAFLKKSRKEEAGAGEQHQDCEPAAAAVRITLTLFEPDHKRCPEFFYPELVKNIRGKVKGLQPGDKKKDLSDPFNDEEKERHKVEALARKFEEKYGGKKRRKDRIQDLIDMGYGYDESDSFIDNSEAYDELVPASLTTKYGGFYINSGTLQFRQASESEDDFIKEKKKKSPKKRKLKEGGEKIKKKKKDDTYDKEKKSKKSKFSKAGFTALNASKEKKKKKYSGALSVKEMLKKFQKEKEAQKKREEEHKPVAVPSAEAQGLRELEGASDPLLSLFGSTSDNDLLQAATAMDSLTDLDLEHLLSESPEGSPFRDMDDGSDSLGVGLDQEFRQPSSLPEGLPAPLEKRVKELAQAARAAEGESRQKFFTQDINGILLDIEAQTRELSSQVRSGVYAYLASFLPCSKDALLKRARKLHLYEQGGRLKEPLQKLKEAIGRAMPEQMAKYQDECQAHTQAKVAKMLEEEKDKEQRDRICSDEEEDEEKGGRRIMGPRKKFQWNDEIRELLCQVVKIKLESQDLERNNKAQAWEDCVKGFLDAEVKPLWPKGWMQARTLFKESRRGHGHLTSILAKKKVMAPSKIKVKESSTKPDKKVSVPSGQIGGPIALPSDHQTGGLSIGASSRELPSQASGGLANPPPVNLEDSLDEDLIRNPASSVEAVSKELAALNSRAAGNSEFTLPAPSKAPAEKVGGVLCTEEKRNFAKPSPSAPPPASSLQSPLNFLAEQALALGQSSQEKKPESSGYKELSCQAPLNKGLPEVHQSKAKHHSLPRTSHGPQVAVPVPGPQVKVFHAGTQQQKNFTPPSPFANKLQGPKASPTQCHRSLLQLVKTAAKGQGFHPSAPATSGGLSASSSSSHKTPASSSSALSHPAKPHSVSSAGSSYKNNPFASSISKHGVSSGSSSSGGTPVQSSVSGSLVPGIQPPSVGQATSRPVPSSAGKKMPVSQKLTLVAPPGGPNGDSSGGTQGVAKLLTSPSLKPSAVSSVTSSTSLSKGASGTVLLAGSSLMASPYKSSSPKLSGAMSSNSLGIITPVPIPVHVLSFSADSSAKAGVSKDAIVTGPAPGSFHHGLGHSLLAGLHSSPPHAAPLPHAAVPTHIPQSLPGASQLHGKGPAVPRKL
UniProt P54198: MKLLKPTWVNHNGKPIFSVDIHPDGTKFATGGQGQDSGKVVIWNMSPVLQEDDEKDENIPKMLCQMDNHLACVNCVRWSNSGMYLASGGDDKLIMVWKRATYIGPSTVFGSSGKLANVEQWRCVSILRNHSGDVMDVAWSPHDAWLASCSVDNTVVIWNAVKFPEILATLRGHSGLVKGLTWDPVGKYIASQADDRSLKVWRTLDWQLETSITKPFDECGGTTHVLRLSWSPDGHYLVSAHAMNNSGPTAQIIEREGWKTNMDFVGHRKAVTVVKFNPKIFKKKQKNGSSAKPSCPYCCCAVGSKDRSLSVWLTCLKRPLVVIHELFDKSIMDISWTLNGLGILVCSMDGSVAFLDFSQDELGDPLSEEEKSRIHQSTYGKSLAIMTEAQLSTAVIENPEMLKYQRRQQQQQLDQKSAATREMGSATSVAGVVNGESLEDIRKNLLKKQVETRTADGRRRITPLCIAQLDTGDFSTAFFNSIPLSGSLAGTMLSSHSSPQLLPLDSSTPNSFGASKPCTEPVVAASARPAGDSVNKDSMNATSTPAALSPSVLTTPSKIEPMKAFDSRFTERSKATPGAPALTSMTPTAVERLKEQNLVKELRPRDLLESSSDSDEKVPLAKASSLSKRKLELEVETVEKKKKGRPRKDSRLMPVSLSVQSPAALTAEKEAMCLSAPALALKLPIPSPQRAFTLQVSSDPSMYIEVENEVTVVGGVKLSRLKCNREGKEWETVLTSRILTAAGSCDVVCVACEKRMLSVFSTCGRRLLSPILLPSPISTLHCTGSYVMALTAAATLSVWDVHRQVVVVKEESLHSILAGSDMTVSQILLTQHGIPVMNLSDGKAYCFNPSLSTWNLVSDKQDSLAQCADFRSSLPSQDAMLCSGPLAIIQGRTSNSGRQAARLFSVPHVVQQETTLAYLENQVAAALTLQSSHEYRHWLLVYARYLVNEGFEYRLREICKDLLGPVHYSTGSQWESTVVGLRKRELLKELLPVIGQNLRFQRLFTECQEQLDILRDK
GST-HIRA (1–481): residues 1-481 of P54198
UniProt Q6ZU65, residues 109-1315: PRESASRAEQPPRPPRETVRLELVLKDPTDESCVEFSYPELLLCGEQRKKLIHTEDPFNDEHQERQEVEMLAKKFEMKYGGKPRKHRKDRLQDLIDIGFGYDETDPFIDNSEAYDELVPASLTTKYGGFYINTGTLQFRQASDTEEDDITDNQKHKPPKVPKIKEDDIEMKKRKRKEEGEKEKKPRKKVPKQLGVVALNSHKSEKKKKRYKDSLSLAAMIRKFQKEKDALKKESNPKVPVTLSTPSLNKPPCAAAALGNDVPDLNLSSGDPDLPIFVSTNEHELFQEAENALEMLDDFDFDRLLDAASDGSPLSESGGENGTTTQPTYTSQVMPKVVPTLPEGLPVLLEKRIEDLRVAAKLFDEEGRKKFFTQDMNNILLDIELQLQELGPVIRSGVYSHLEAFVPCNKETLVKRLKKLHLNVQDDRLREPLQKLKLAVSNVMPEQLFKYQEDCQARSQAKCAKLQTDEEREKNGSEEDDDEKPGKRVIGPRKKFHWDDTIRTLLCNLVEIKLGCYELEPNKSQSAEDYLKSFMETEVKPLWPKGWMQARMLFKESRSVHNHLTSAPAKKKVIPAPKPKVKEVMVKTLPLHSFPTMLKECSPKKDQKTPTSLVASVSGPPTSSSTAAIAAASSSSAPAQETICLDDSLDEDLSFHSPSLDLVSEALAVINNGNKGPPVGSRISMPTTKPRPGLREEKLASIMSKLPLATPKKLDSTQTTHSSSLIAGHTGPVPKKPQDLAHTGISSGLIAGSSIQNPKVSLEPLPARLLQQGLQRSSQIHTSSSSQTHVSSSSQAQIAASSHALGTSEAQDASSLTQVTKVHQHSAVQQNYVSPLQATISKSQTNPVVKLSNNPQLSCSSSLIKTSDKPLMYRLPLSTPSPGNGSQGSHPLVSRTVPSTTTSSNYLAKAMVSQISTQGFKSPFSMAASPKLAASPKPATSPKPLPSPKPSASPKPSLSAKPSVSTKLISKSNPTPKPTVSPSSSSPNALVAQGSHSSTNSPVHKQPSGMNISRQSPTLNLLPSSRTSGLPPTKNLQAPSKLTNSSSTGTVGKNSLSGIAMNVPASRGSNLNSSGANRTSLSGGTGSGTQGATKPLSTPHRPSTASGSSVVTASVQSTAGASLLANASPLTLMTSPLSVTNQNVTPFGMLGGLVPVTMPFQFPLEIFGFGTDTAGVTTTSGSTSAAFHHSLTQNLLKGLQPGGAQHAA

For experiment [1], the target named is exogenous UBN1 in HEK293T cells (co-IP with UBN2) (human) (UniProt Q9NPG3). Kind of experiment: co-IP; HEK293T cells (wild type or HIRA knockout) transfected with Flag-tagged and HA-tagged plasmids, in some panels also Myc-tagged HIRA, UBN1, Cabin1 or Asf1a; lysed in RIPA buffer (50 mM Tris-HCl pH 7.6, 150 mM NaCl, 1 mM EDTA, 0.1% Nonidet P-40, 10% glycerol); anti-Flag M2 agarose overnight at 4 °C; Western blot. Background: A western blot detects proteins with antibodies after separation by electrophoresis.

Experiment [2] addresses GST-HIRA (1–481) (human) (UniProt P54198). Kind of experiment: co-purification; GST-HIRA (1–481) and His-UBN1 (1–213) co-expressed in Sf9 insect cells (baculovirus); the complex purified by GST tag.
Experiment [3] has as its target Flag-UBN1 F138A/I139A/D140A (human) (UniProt Q9NPG3). Nature of the experiment: co-IP; HEK293T cells (wild type or HIRA knockout) transfected with Flag-tagged and HA-tagged plasmids, in some panels also Myc-tagged HIRA, UBN1, Cabin1 or Asf1a; lysed in RIPA buffer (50 mM Tris-HCl pH 7.6, 150 mM NaCl, 1 mM EDTA, 0.1% Nonidet P-40, 10% glycerol); anti-Flag M2 agarose overnight at 4 °C; Western blot.

In experiment [4] the target is Flag-UBN1 (human) (UniProt Q9NPG3). Described as above.

“exogenous UBN2 in HEK293T cells (co-IP with UBN1) (from UniProt Q6ZU65 109-1315) (domain or fragment)”: the binding result in experiment [1] is on record as “no binding”.

On to “His-UBN1 (1–213) (from UniProt Q9NPG3 1-213) (domain or fragment)”, for which the binding result in experiment [2] is reported as “binds”.

Turning to Myc-HIRA (from UniProt P54198 1-1017), the binding result in experiment [3] and in experiment [4] was “binds” in each case.

These data come from PMC6171237.
